Reference: PubChem BioAssay AID1487 (National Center for Advancing Translational Sciences (NCATS), 2009)
Screen size: about 200,000 compounds; about 25 (0.01%) were called active. This list was built around the results that the source calls inconclusive (neither active nor inactive); the mix of calls is not that of the screen. Calls come from the whole dose curve; as a rule, active = well fitted inhibition curve with a large enough effect in the signal ratio, with a control signal flat (not every such curve was filed as active); inconclusive = small, poorly fitted or top-dose-only effect, or effect the other way, or a change in a side signal; inactive = flat fitted curve, though single readings scatter; the % refers to the signal ratio. Potencies beside an inconclusive call are fits to weak or partial responses and may not hold up.

Assay: qHTS Assay for Modulators of Lamin A Splicing
Conditions: HeLa LMNA splicing GFP/RFP minigene ratio, 48 h; ratio change, negative = inhibition: at 46.1 µM (top of the series) unless noted
Summary of the method: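 S3 HeLa stable clones carrying a lamin A-EGFP splicing minigene plus DsRed2 were seeded at 600 cells/well in Opti-MEM with 2% FBS, pin-dosed and incubated 48 h at 37°C. Acumen cytometry (488 nm) gave the GFP/RFP total-intensity ratio.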
% is set by controls: 0 for no effect and ±100 for the full control effect; potency is the fitted concentration of half-maximal effect.

Compound | Potency | ratio change, negative = inhibition
CCc1ccc(OCCNC(=O)c2cccs2)cc1 | inconclusive: 35.5 µM [falling, single point] | 
COc1ccc(C)cc1S(=O)(=O)Nc1ccc(F)c(Cl)c1 |  | inactive
O=C1c2cccnc2C(Nc2ccc(Br)cc2Br)N1Cc1cccs1 (stereo not given) |  | inconclusive: -14.3% [at 46 µM]
CSC1=NC(C)(C)C=C(/C=C/c2c(Cl)cccc2Cl)N1 |  | inconclusive: -26.5% [at 46 µM]
N#CC1=C(SCc2ccccc2)NC(=O)CC1c1ccco1 (stereo not given) |  | inconclusive: 15.1%
CCCc1ccc(C#N)c(SC2CC(=O)N(c3ccc(OC)cc3)C2=O)n1 (stereo not given) |  | inconclusive: 12.1% [at 46 µM]
Cc1cccn2c(=O)c3cc(C(N)=S)c(=N)n(CCCN4CCOCC4)c3nc12 |  | inconclusive: -34.6% [at 46 µM]
CCOC(=O)c1ccc(NC(=S)N(CCCN2CCN(C)CC2)Cc2cccs2)cc1 |  | inconclusive: -28.6% [at 46 µM]
O=S(=O)(c1ccc(Cl)cc1)N1c2ccccc2Oc2nc3ccccc3nc21 |  | inactive
O=C(/C=C/c1ccc([N+](=O)[O-])cc1)Nc1cccnc1 |  | inactive
COc1ccc(N2CCN(C(=O)CNC(=O)Cn3c(C)cc4ccccc4c3=O)CC2)cc1 |  | inconclusive: -8.76%
C/C(=N\OCC(=O)N/N=C/c1ccccc1O)c1cccs1 | inconclusive: 35.5 µM [falling, single point] | 
COc1ccc(CCNC(=S)Nc2ccccc2C)cc1 | inconclusive: 22.4 µM [cytotoxic, partial curve, poor fit] | 
CC(=O)Nc1ccc(C(=O)OCC(=O)Nc2ccc(N3CCOCC3)cc2)cc1 |  | inactive
CCC(=O)Nc1ccc(S(=O)(=O)Nc2cccc(C)c2)cc1OC |  | inconclusive: -34.7%
COc1cc2cc(CN(C(=O)NC3CCCCC3)C3CCCC3)c(=O)[nH]c2cc1OC |  | inconclusive: 10.5%
COC(=O)C1=C(C)N(CCc2ccc(OC)cc2)C(=O)C1 |  | inactive
Cc1ccccc1C(=O)Nc1sc(C)c(C)c1C(=O)c1ccccc1 |  | inconclusive: 7.82%
Cc1ccccc1NC(=O)CN1C(=O)C2(SCC(=O)N2c2ccc(F)cc2)c2ccccc21 (stereo not given) |  | inconclusive: 0.84% [at 46 µM]
Cc1ccc(C)c(NC(=O)CN2CCN(C3CCCCC3)C(=O)C2=O)c1 |  | inactive
O=C(Cc1cccs1)N/N=C/C=C/c1ccccc1 |  | inactive
O=C1c2ccccc2C(O)(Cc2ccccc2)N1C1CCCCC1 (stereo not given) |  | inactive

Compound | Potency | ratio change, negative = inhibition
COc1ccccc1NC(=O)CN1C(=O)CCS(=O)(=O)c2ccccc21 |  | inactive
O=C(Nc1ccc(Cl)cc1)N1CCC(CO)(Cc2ccccc2)CC1 |  | inconclusive: -11.3% [at 46 µM]
CC1CCCN(C(=O)CCc2ccccc2)C1 (stereo not given) |  | inactive
O=C(N/N=C/c1ccc(-c2ccc([N+](=O)[O-])cc2)o1)c1cccnc1 |  | inconclusive: 30.2% [at 46 µM]
CC1(C)OC(=O)C(=CSc2ccc(C(C)(C)C)cc2)C(=O)O1 |  | inactive
Fc1ccc(Nc2nc(N/N=C/c3ccco3)nc(N3CCCCC3)n2)cc1 | inconclusive: 35.5 µM [falling, partial curve, poor fit] | 
O=C(c1ccccc1)c1c[nH]c(C(=O)NCc2cccnc2)c1 |  | inconclusive: -10%
COc1cc2c3nnc(-c4ccccc4)c-3cn(Cc3ccccc3F)c2cc1OC |  | inactive
CC(=O)c1cccc(NC(=O)c2sc(-n3nc(C)c(CCC(C)C)c3C)nc2C)c1 |  | inconclusive: 10.8% [at 46 µM]
COc1ccc(NS(=O)(=O)c2ccc3c(c2)Cc2ccccc2-3)cn1 |  | inconclusive: -32.2%
Cc1nc2ncccn2c1-c1csc(Nc2ccc(N(C)C)cc2)n1 |  | inconclusive: -16.9% [at 46 µM]
C1=CC2c3ccccc3NC(c3ccncc3)C2C1 (stereo not given) |  | inactive
O=C(CSc1nnc(-c2ccccc2Br)o1)N1CCN(C(=O)c2ccco2)CC1 |  | inconclusive: 8.07%
Cc1ccc(S(=O)(=O)N2CCN(c3ccc(C(=O)N4CCOCC4)cc3[N+](=O)[O-])CC2)cc1 | inconclusive: 35.5 µM [fluorescent, single point] | 
C=CC[n+]1c(-c2ccc(C)cc2)csc1Nc1ccc(NC(C)=O)cc1 |  | inconclusive: -39.9% [at 46 µM]
CCC(=O)N1CCN(c2ccccc2NC(=S)NC(=O)c2cccc([N+](=O)[O-])c2)CC1 |  | inconclusive: -22.1% [at 46 µM]
Cc1nn(C(C)C(=O)NCc2ccco2)c(C)c1[N+](=O)[O-] (stereo not given) |  | inconclusive: 29% [at 46 µM]
O=C(NCc1ccc(F)cc1)c1cnc(N2CCOCC2)c2ccccc12 |  | inconclusive: 2.74% [at 46 µM]
CC1CCCCN1C(=O)c1ccc(NC(=O)c2ccccc2Cl)cc1 (stereo not given) |  | inconclusive: -14.7% [at 46 µM]
CCCCCNC(=O)c1ccccc1SC |  | inactive
CCN1CCN(Cc2ccc3c(c2)Cc2ccccc2-3)CC1 |  | inconclusive: 11.7%
COc1ccc(Sc2ncnc3onc(C)c23)cc1 |  | inconclusive: -16.8% [at 9.22 µM]

Taken from above.
Value of N#CC1=C(SCc2ccccc2)NC(=O)CC1c1ccco1 (stereo not given) under ratio change, negative = inhibition: inconclusive: 15.1%
Value of COc1ccc(C)cc1S(=O)(=O)Nc1ccc(F)c(Cl)c1 under ratio change, negative = inhibition: inactive

More structures follow.

Compound | Potency | ratio change, negative = inhibition
COc1ccc(NC(=O)CSC2=Nc3ccccc3N=C(c3ccc(F)cc3)C2)cc1OC |  | inactive
CC1OC(Nc2ccc(N=Nc3ccccc3)cc2)C(O)C(O)C1O (stereo not given) |  | inconclusive: -4.12% [at 46 µM]
Cc1cccn2c(N)c(-c3ccccc3)nc12 |  | inconclusive: 2.46%
Cc1cnc(CNc2ncnc3ccc(-c4cccc(NS(C)(=O)=O)c4)cc23)cn1 |  | inactive
CN(C)c1cccc(C(=O)Nc2nc3ccc(S(=O)(=O)N4CCCC4)cc3s2)c1 |  | inactive
COCCN1C(=O)C(O)=C(C(C)=O)C1c1ccc(F)cc1 (stereo not given) |  | inactive
CCC(c1nnnn1C1CCCC1)N1CCN(c2cccc(OC)c2)CC1 (stereo not given) |  | inconclusive: 0.856% [at 46 µM]
Cc1ccccc1-c1nc(CN2CCC(C(=O)NCC3CCCO3)CC2)c(C)o1 (stereo not given) |  | inconclusive: 1.74%
O=C(Cn1cnc2c(nnn2-c2ccc(F)cc2)c1=O)N1CCCc2ccccc21 |  | inconclusive: -0.901%
COC(=O)C1=C(C(=O)OC)[C@@H]2N(C)c3ccccc3[C@@]23C[C@@H](C(=O)OC)N(S(=O)(=O)c2ccc(C)cc2)C3=N1 |  | inactive: 1.79% [at 9.22 µM]
COc1ccccc1NC(=O)CSc1nnnn1-c1ccc(C)cc1 |  | inactive
Cc1ccc(S(=O)(=O)NCC(c2cccnc2)N(C)C)cc1 (stereo not given) |  | inactive
CC1CN(C2CCN(C(=O)COc3ccc(Cl)cc3)CC2)CC(C)O1 (stereo not given) |  | inactive
COc1ccc(OC)c(C(=O)COC(=O)c2ccccc2O)c1 |  | inconclusive: 18.6%
COc1ccc(Cc2nn3c(-c4cc(OC)c(OC)c(OC)c4)nnc3s2)cc1 | inconclusive: 31.6 µM [falling, single point] | 
O=C(/C=C/c1c(F)cccc1Cl)Nc1nc2ccccc2[nH]1 |  | inconclusive: 16.6%
CC(C)(C)c1nc2ccccc2c2nnc(SCC(=O)NCc3ccco3)n12 |  | inconclusive: 12.5%
COC(=O)c1onc(-c2ccccc2)c1C(=O)OC |  | inactive
O=C(c1ccc(C(F)(F)F)cc1)C1CCCN(C(=O)CCN2CCCO2)C1 (stereo not given) |  | inconclusive: -4.66% [at 46 µM]
CC1CCN(c2nnc(N)s2)CC1 |  | inconclusive: -1.58%
O=C1COc2cc(S(=O)(=O)CCC(=O)NC3CCCCC3)c(Cl)cc2N1 |  | inactive
COc1ccc(C)cc1-n1cnc2cc(C(=O)NC3CCCCCC3)ccc21 |  | inactive

Compound | Potency | ratio change, negative = inhibition
O=C(NC(=S)Nc1ccc(N2CCOCC2)cc1)c1ccc2c(c1)OCCO2 | inconclusive: 10 µM [fluorescent, partial curve] | 
COc1cccc(CNC(=O)CN2C(=O)N(c3ccc(C)cc3C)S(=O)(=O)c3ccccc32)c1OC |  | inactive
CN(C)CCCNC(=O)COc1ccc(Br)cc1Cl |  | inconclusive: 9.69%
COc1cccc(C(=O)Nc2cccc(-c3nc4ncccn4c3C)c2)c1 |  | inconclusive: 4.81% [at 46 µM]
Clc1ccc(CNc2nc(CN3CCOCC3)nc3scc(-c4ccccc4)c23)cc1 |  | inconclusive: -24.9%
CCc1ccc(N2C(=O)CC(N(CC3CCCO3)C(=O)/C=C/C(=O)O)C2=O)cc1 (stereo not given) |  | inactive
Cc1cccc(C)c1N1CCN(c2nc(N(C)C)oc(=O)c2C#N)CC1 |  | inactive
O=C(CN1CCC(NC(=O)c2ccco2)CC1)Nc1ccccc1[N+](=O)[O-] |  | inconclusive: 1.46% [at 46 µM]
COCCNC(=O)CSc1nc(-c2ccccc2)cs1 |  | inactive
O=C(NCC1(c2ccccc2)CCCC1)C(=O)NCC1(c2ccccc2)CCCC1 |  | inactive
Cc1ccc(-c2nc3c4ccccc4n(CC(=O)NCc4ccc(F)cc4)c(=O)n3n2)cc1 |  | inconclusive: 24.8% [at 46 µM]
O=C(O)c1ccc2nc(-c3cc4cc(Cl)ccc4oc3=O)[nH]c2c1 |  | inactive
COc1cc(O)c(C)c(O)c1 |  | inconclusive: 33.3%
N/C(Cc1ccc(Cl)cc1)=N\OC(=O)c1cccc2ccccc12 |  | inconclusive: 29.6%
CC(=O)c1cccc(S(=O)(=O)N2CCCC(c3nc(-c4ccc(C)o4)no3)C2)c1 (stereo not given) | inconclusive: 11.2 µM [falling, single point] | 
O=C(CCC1CCCC1)NCCCN1CCOCC1 |  | inactive
Cc1cc2c3c(c1C)C1(C(=O)N3C(C)(C)CC2C)C(C#N)=C(N)Oc2cc(O)ccc21 (stereo not given) |  | inconclusive: 13.2%
CCC(C)(C(=O)NC1CCCCC1)N(C(=O)CC1NC(=O)NC1=O)c1c(C)n(C)n(-c2ccccc2)c1=O (stereo not given) |  | inconclusive: 10.3% [at 46 µM]
COc1ccc(-c2cc(C(=O)N3CCc4ccccc4C3)no2)cc1 |  | inactive

By substructure, the compounds so far with a halogen
Compound | Potency | ratio change, negative = inhibition
COc1ccc(C)cc1S(=O)(=O)Nc1ccc(F)c(Cl)c1 |  | inactive
O=C1c2cccnc2C(Nc2ccc(Br)cc2Br)N1Cc1cccs1 (stereo not given) |  | inconclusive: -14.3% [at 46 µM]
CSC1=NC(C)(C)C=C(/C=C/c2c(Cl)cccc2Cl)N1 |  | inconclusive: -26.5% [at 46 µM]
O=S(=O)(c1ccc(Cl)cc1)N1c2ccccc2Oc2nc3ccccc3nc21 |  | inactive
Cc1ccccc1NC(=O)CN1C(=O)C2(SCC(=O)N2c2ccc(F)cc2)c2ccccc21 (stereo not given) |  | inconclusive: 0.84% [at 46 µM]
O=C(Nc1ccc(Cl)cc1)N1CCC(CO)(Cc2ccccc2)CC1 |  | inconclusive: -11.3% [at 46 µM]
Fc1ccc(Nc2nc(N/N=C/c3ccco3)nc(N3CCCCC3)n2)cc1 | inconclusive: 35.5 µM [falling, partial curve, poor fit] | 
COc1cc2c3nnc(-c4ccccc4)c-3cn(Cc3ccccc3F)c2cc1OC |  | inactive
O=C(CSc1nnc(-c2ccccc2Br)o1)N1CCN(C(=O)c2ccco2)CC1 |  | inconclusive: 8.07%
O=C(NCc1ccc(F)cc1)c1cnc(N2CCOCC2)c2ccccc12 |  | inconclusive: 2.74% [at 46 µM]
CC1CCCCN1C(=O)c1ccc(NC(=O)c2ccccc2Cl)cc1 (stereo not given) |  | inconclusive: -14.7% [at 46 µM]
COc1ccc(NC(=O)CSC2=Nc3ccccc3N=C(c3ccc(F)cc3)C2)cc1OC |  | inactive
COCCN1C(=O)C(O)=C(C(C)=O)C1c1ccc(F)cc1 (stereo not given) |  | inactive
O=C(Cn1cnc2c(nnn2-c2ccc(F)cc2)c1=O)N1CCCc2ccccc21 |  | inconclusive: -0.901%
CC1CN(C2CCN(C(=O)COc3ccc(Cl)cc3)CC2)CC(C)O1 (stereo not given) |  | inactive
O=C(/C=C/c1c(F)cccc1Cl)Nc1nc2ccccc2[nH]1 |  | inconclusive: 16.6%
O=C(c1ccc(C(F)(F)F)cc1)C1CCCN(C(=O)CCN2CCCO2)C1 (stereo not given) |  | inconclusive: -4.66% [at 46 µM]
O=C1COc2cc(S(=O)(=O)CCC(=O)NC3CCCCC3)c(Cl)cc2N1 |  | inactive
CN(C)CCCNC(=O)COc1ccc(Br)cc1Cl |  | inconclusive: 9.69%
Clc1ccc(CNc2nc(CN3CCOCC3)nc3scc(-c4ccccc4)c23)cc1 |  | inconclusive: -24.9%
Cc1ccc(-c2nc3c4ccccc4n(CC(=O)NCc4ccc(F)cc4)c(=O)n3n2)cc1 |  | inconclusive: 24.8% [at 46 µM]
O=C(O)c1ccc2nc(-c3cc4cc(Cl)ccc4oc3=O)[nH]c2c1 |  | inactive
N/C(Cc1ccc(Cl)cc1)=N\OC(=O)c1cccc2ccccc12 |  | inconclusive: 29.6%
